# Results are given in words; binding and its absence hold for the method and conditions named. For part of these data: Binding seen in cells or lysates may run through a third protein. For part of these data: Binding calls can cover weak binding; strength is not graded here. Tags and fused reporters may be left off the sequences shown.
# The chains behind the UniProt entries cited, without tags or fusion partners. Where a name states a change or a piece, a line headed by the entry shows the natural chain unless it says otherwise.
# UniProt A0A1E1GJI0: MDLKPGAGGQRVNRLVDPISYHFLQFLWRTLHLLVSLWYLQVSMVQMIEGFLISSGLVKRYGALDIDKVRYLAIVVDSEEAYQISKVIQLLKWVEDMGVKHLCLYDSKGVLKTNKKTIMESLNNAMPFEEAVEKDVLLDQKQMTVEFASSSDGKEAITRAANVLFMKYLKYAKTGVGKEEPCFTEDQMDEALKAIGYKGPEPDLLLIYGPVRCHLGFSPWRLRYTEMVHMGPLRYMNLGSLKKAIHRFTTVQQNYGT
# What was measured:
# [1] = molecular target: T1, HRT2 (cis-prenyltransferase from Hevea brasiliensis), split-ubiquitin Y2H fusion (Hevea brasiliensis) (UniProt Q8W3U4); experiment: two-hybrid; split-ubiquitin-based Y2H (DUALmembrane Kit 3), pairwise; S. cerevisiae NMY51; bait in pBT3-SUC (Cub-LexA-VP16), prey in pPR3-N (NubG); growth of dilution series on SD(-WL), SD(-WLH), SD(-WLHAde) and SD(-WLHAde) with 1 mM 3-AT, 30°C
# T1 sequence: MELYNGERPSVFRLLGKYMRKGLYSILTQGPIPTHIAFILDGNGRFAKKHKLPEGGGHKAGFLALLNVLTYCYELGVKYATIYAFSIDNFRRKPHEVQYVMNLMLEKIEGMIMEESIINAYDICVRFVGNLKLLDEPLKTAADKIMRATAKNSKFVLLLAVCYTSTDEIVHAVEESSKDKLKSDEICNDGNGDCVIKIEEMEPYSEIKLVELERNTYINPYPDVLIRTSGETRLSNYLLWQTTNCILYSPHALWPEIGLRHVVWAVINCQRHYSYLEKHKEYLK
# [2] = molecular target: T2, Rubber elongation factor (REF) from Hevea brasiliensis, split-ubiquitin Y2H fusion (Hevea brasiliensis) (UniProt P15252); experiment: as above
# T2 sequence: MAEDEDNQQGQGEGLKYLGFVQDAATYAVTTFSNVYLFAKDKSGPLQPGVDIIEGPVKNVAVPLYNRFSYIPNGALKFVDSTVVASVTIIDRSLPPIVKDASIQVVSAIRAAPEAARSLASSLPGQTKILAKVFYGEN
# [3] = molecular target: T3, Rubber elongation factor (REF) fused to a split mVenus fragment (BiFC) (Hevea brasiliensis) (UniProt P15252); experiment: split reporter; BiFC with split mVenus fragments (pDOE-05 or pDOE-07) in agroinfiltrated N. benthamiana leaf epidermal cells, confocal microscopy 2 days after infiltration; also with REF:mCherry co-expressed (Figure 4B)
# T3 sequence: T2 sequence
Substance,binding [1],binding [2],binding [3]
"HRT1 (cis-prenyltransferase from Hevea brasiliensis), split-ubiquitin Y2H fusion (from UniProt Q8L5B7) (enzyme)",no binding,no binding,
HRT1-REF bridging protein (HRBP) fused to a split mVenus fragment (BiFC) (from UniProt A0A1E1GJI0),,,binds

# Source: paper PMC5110245, “Identification and reconstitution of the rubber biosynthetic machinery on rubber particles from Hevea brasiliensis” (eLife, 2016)
